Measured values reported in patent US10563220B2, “Compositions and methods for efficient targeting of transgenes” (priority 2015, dated 2020).

Key:
[1] = system: R1 transgenic soybean plants; experiment: Amino-terminal sequencing of DMO from R1 soybean leaf; conditions: DMO = full processing of the CTP
[2] = system: R1 transgenic soybean plants; experiment: R1 soybean leaf DMO ELISA; conditions: single-copy dicamba tolerant R1 soybean, CTP linked to DMO SEQ ID NO:18

B1: APG6: Arabidopsis thaliana albino and pale green (APG6) chloroplast transit peptide, SEQ ID NO:1, tested linked to DMO or PPO (protein, listed as Arabidopsis thalinana)
chain: MATATTTATAAFSGVVSVGTETRRIYSFSHLQPSAAFPAKPSSFKSLKLKQSARLTRRLDHRPFVVRC
- APG6-DMO processing [1]: DMO
- Leaf DMO levels [2]: 13.35 ± 2.7 ng/mg

B2: Optimized APG6: amino-terminal optimized variant of the APG6 CTP, SEQ ID NO:2 (protein)
chain: MASSTTTATAAFSGVVSVGTETRRIYSFSHLQPSAAFPAKPSSFKSLKLKQSARLTRRLDHRPFVVRC
- APG6-DMO processing [1]: DMO
- Leaf DMO levels [2]: 18.55 ± 3.1 ng/mg
